Experimental data published in PubChem BioAssay AID504444 (National Center for Advancing Translational Sciences (NCATS), 2011).
Values joined by “and” are separate entries in the source; they are usually repeats but may differ in a detail not shown here. Equal entries are not always repeated. The campaign covered roughly 360,000 compounds. About 7,500 (2.1%) were called active. The shares of active, inactive and inconclusive entries below differ from those in the screen. Calls follow the shape of the dose curve; as a rule, active = well fitted inhibition curve with a large enough effect; inconclusive = small, poorly fitted or top-dose-only effect, or effect the other way; inactive = flat fitted curve, though single readings scatter. A potency beside an inconclusive call is a rough fit, not a confirmed value.

Assay: Nrf2 qHTS screen for inhibitors; also: nearly all actives have a fitted effect of over 60% in size
Details: A549 ARE-Fluc reporter, luciferase luminescence, 18-24 h; series mostly up to 46 µM
Method in brief: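 Cells were seeded and rested 2 h, then exposed to compounds for 18-24 h. CellTiter-Fluor was read first as a viability measure. BugLite was added 15 min before the final luminescent read of ARE-luciferase activity in A549 cells.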
Potency is read from the fitted curve at half-maximal effect.

| Structure (SMILES) | Potency |
| --- | --- |
| O=C(Nc1ccc(CN2CCCCC2)cc1)c1ccc(Br)o1 | inconclusive: 13 µM [activator, partial curve] |
| COc1cccc(Oc2cnc(N)nc2-c2ccc(OC)cc2O)c1 | inconclusive: 1.84 µM [falling, full curve] |
| CCOC(=O)C1CCN(Cc2cc(=O)oc3cc(C)c(Cl)cc23)CC1 | inconclusive: 14.6 µM [activator, single point] |
| CN(C)S(=O)(=O)c1cccc(N=C2SCCN2Cc2ccccc2)c1 | inconclusive: 18.4 µM [falling, single point] |
| Cn1c(=O)oc2cc(S(=O)(=O)CCC(=O)NCCc3ccc(Cl)cc3)ccc21 | inconclusive: 18.4 µM [activator, partial curve] |
| COc1ccc2[nH]cc(/C=C/C(=O)c3ccccc3)c2c1 | inconclusive: 13 µM [activator, partial curve] |
| COC(=O)c1ccccc1NC(=O)c1ccc(NC(=O)C2CCCO2)cc1 (configuration not stated) | inconclusive: 1.84 µM [falling, full curve, poor fit] |
| COC(=O)COc1ccc2c(=O)c(-c3ccccc3)coc2c1 | inconclusive: 2.31 µM [activator, full curve, poor fit] |
| CN1CCN(C(=O)c2ccc(Cl)cc2)CC1 | inactive |
| O=C(c1cc(COc2ccc(-n3cncn3)cc2)on1)N1CCCC1 | inactive |
| Cn1c(=O)c2sccc2n2c(CCCC(=O)NC3CCCCC3)nnc12 | inconclusive: 29.1 µM [activator, single point] |
| O=C(O)/C=C/c1cn(Cc2ccccc2Cl)nc1-c1ccccc1 | inactive |
| COc1ccc(C(=O)CC(c2ccccc2)C2CCCCC2=O)cc1 (configuration not stated) | inconclusive: 29.1 µM [falling, single point] |
| Cc1ccc(-n2nc(C)c3c(C)cc(=O)n(CC(=O)NC(C)c4ccccc4)c32)cc1 (configuration not stated) | inconclusive: 29.1 µM [activator, single point] |
| COc1ccc(S(=O)(=O)N(CC(=O)Nc2cc(Cl)ccc2C)Cc2ccccc2)cc1OC | inconclusive: 29.1 µM [falling, single point] |
| O=C(NCCc1c[nH]c2ccccc12)OCCSS(=O)(=O)O | inconclusive: 29.1 µM [falling, single point] |
| Oc1ccc(Nc2ccccc2F)c2cccnc12 | inconclusive: 11.6 µM [activator, partial curve] |
| CC(=NCCN1CCOCC1)C1=C(O)c2ccccc2C1=O | inconclusive: 5.8 µM [activator, full curve, poor fit] |
| CCn1nc(C)c2c(-c3ccccc3)cc(=O)n(C(C)C(=O)NCCc3ccc(OC)c(OC)c3)c21 (configuration not stated) | inconclusive: 8.2 µM [falling, partial curve, poor fit] |
| Cc1cccc(N=Nc2c(C)[nH]n(-c3ccccc3)c2=O)c1 | inconclusive: 1.64 µM [activator, full curve] |
| CCOC(=O)c1ccc2c(c1)n(CC)c(/C=C/Nc1ccccc1)[n+]2CC | inactive |

3 records picked at random from those above:

| Structure (SMILES) | Potency |
| --- | --- |
| Cc1ccc(-n2nc(C)c3c(C)cc(=O)n(CC(=O)NC(C)c4ccccc4)c32)cc1 (configuration not stated) | inconclusive: 29.1 µM [activator, single point] |
| O=C(Nc1ccc(CN2CCCCC2)cc1)c1ccc(Br)o1 | inconclusive: 13 µM [activator, partial curve] |
| CCn1nc(C)c2c(-c3ccccc3)cc(=O)n(C(C)C(=O)NCCc3ccc(OC)c(OC)c3)c21 (configuration not stated) | inconclusive: 8.2 µM [falling, partial curve, poor fit] |

(further entries)

| Structure (SMILES) | Potency |
| --- | --- |
| COc1ccc(CN(C)CC(O)COC(c2ccccc2)c2ccccc2)c(OC)c1OC (configuration not stated) | inconclusive: 32.6 µM [falling, single point] |
| COc1ccc(C2C(C#N)=C(N)Oc3n[nH]c(C)c32)cc1Cn1nc(C)c([N+](=O)[O-])c1C (configuration not stated) | inconclusive: 2.31 µM [falling, partial curve, poor fit] |
| O=C1Nc2cc(Cl)ccc2Nc2cscc21 | inconclusive: 4.11 µM [falling, full curve, poor fit] |
| O=C(c1ccc([N+](=O)[O-])s1)N1CCc2ccccc2C1 | inconclusive: 20.6 µM [falling, partial curve] |
| O=S(=O)(N/N=C1\CCCc2ccccc21)c1ccccc1 | inconclusive: 25.9 µM [falling, single point] |
| O=S(=O)(c1ccc2ccccc2c1)N1CCc2ccccc21 | inconclusive: 18.4 µM [falling, partial curve] |
| Cc1ccc2nc(-c3ccncc3)c(Nc3ccccc3)n2c1 | inconclusive: 32.6 µM [activator, partial curve, poor fit] and inconclusive: 1.64 µM [activator, partial curve, poor fit] |
| Cc1nnsc1S(=O)(=O)c1ccccc1 | active: 8.2 µM |
| COc1ccc(Cl)cc1NC(=O)NCC1CCN(Cc2cc(C)ccc2C)CC1 | inconclusive: 18.4 µM [falling, single point] |
| CC1CCCN(CC(=O)Nc2ccc(S(=O)(=O)NC3CCCCC3)cc2)C1 (configuration not stated) | inconclusive: 25.9 µM [falling, single point] |
| O=C(CN1C(=O)c2ccccc2C1=O)Nc1ccccc1C(=O)NC1CCCCCC1 | inconclusive: 5.8 µM [activator, single point] |
| CCCCN(CC)CCNC(=O)C1CCCN(c2ncnc3onc(C)c23)C1 (configuration not stated) | inconclusive: 18.4 µM [activator, partial curve, poor fit] |
| COc1cccc(CN(C)C(=O)CN2C(=O)NC(c3ccccc3)(c3ccccc3)C2=O)c1OC | inactive |
| O=C(Nc1nc(COc2ccccc2)cs1)C1CCC1 | inconclusive: 16.4 µM [falling, single point] |
| COc1ccc2nc(Cl)c(C#N)cc2c1 | inconclusive: 32.6 µM [activator, single point] |
| O=C(N/N=C/c1cc([N+](=O)[O-])ccc1Cl)c1cnccn1 | inactive |
| CCCN1CCN(CCCNC(=O)c2ccc3nc(N4CCCCC4)sc3c2)CC1 | inconclusive: 7.31 µM [activator, partial curve] |
| FC(F)(F)c1cccc(-c2nn[nH]n2)c1 | inactive |
| C[C@H](CO)N1C[C@H](C)[C@@H](CN(C)Cc2ccc(C(=O)O)cc2)Oc2c(NC(=O)Cc3ccccc3)cccc2C1=O | inactive |
| CCS(=O)(=O)c1ncc(Cl)c(C(=O)Nc2ccccc2)n1 | inconclusive: 16.4 µM [falling, single point] |
| Cc1cccc(Cc2cnc(NC(=O)c3ccc(C)o3)s2)c1 | inconclusive: 6.51 µM [activator, partial curve] |
